Test in all cases: EMSA
One data set concerns Dna2 + Cdc24-YFH + RPA. The note with it: 1 mM EDTA, with Pxd1(227-351): higher-order complex disrupted, DNA appears bound by RPA only; 50 mM Tris-HCl pH 7.5, 1 mM EDTA, 1 mM DTT, 0.1 mg/ml BSA, 50 mM NaCl, 5% glycerol, 15 fmol DNA in 10 µl, room temperature 30 min; 5% PAGE in 1x TBE; native protein; label: 5' 32P on oligo461.
In data set [1] the test system is Dna2 + Cdc24-YFH + Pxd1(227-351)-5A. The following applies: 1 mM EDTA, no RPA, much weaker ability to shift the Dna2-Cdc24-DNA complex; 50 mM Tris-HCl pH 7.5, 1 mM EDTA, 1 mM DTT, 0.1 mg/ml BSA, 50 mM NaCl, 5% glycerol, 15 fmol DNA in 10 µl, room temperature 30 min; 5% PAGE in 1x TBE; native protein; label: 5' 32P on oligo461.
Data set [2] has as its system Pxd1(227-351) (Schizosaccharomyces pombe). The note with it: 1 mM EDTA, 500 ng Pxd1 alone; 50 mM Tris-HCl pH 7.5, 1 mM EDTA, 1 mM DTT, 0.1 mg/ml BSA, 50 mM NaCl, 5% glycerol, 15 fmol DNA in 10 µl, room temperature 30 min; 5% PAGE in 1x TBE; recombinant protein; label: 5' 32P on oligo461.
The test system of data set [3] is Dna2 + Cdc24-YFH + Pxd1(227-351). The note with it: 1 mM EDTA, no RPA, complex migrates faster than Dna2-Cdc24-DNA; 50 mM Tris-HCl pH 7.5, 1 mM EDTA, 1 mM DTT, 0.1 mg/ml BSA, 50 mM NaCl, 5% glycerol, 15 fmol DNA in 10 µl, room temperature 30 min; 5% PAGE in 1x TBE; native protein; label: 5' 32P on oligo461.

Construct, isoform or probe ends are uncertain for at least one entry. For some of these results: No signal at the amounts used counts as a negative. For some of these results: A weaker result is weaker than the reference pair of the same experiment.

With “CACGCTACCGAATTCTGACTTGCTAGGACATCTTTGCCCACGTTGACCC / GGGTCAACGTGGGCAAAG [5' overhang DNA (oligo461/oligo463)]”, the binding result was “binds more weakly” in the data set on Dna2 + Cdc24-YFH + RPA, “binds more weakly” in data set [1], “no binding” in data set [2] and “binds” in data set [3].

(Values after article PMC4159138, “Fission Yeast Pxd1 Promotes Proper DNA Repair by Activating Rad16^XPF and Inhibiting Dna2” (PLoS Biology, 2014).)
